A short description of data set [1]: Lubricity test: friction force through silicone pads in water (Harland FTS 5000).
Data set [2] in a line: Congo Red stain and rub durability of PVP/crosslinker coatings on PVC coverslips. Further details: key: +++ indicates a full coating, no obvious removal of coating from the piece and a bright red color; ++ is slight removal but majority is still intact, color is still red but may be slightly less red or blotchy; + indicates significant removal of coating, but still coating present. The color is typically pink; − indicates no coating remains, no color at all from the stain. To be noted: 50 mg/mL PVP Kollidon 90 in isopropanol, PVC coverslip; for Congo Red stain, Illuminated Rubbed / Congo Red stain, Illuminated Unrubbed: UV 5 minutes.

The mark [3] stands for this setting: 0.5 mg/ml crosslinker, 50 mg/ml PVP 70% K90/30% K30, Mentor Self-Cath catheter, nine cycles.
The mark [4] stands for this setting: 0.5 mg/ml crosslinker, 50 mg/ml PVP 75% K90/25% K30, Mentor Self-Cath catheter, 300 g clamp force.
Where [5] appears, read: 0.5 mg/ml crosslinker, 50 mg/ml PVP 80% K90/20% K30, PVC tubing, fifteen cycles.
Where [6] appears, read: 1.0 mg/ml crosslinker, 50 mg/ml PVP 75% K90/25% K30, HDPE rod, 500 g force, eleven cycles.

Each structure is given as a SMILES string.

In data set [1] (setting [3]), `O=C(c1ccccc1)c1ccc(OCC(O)Cn2c(=O)n(CC(O)COc3ccc(C(=O)c4ccccc4)cc3)c(=O)n(CC(O)COc3ccc(C(=O)c4ccccc4)cc3)c2=O)cc1` (centres unmarked) [Example 1] yielded an average frictional force of 16.2 g and an average peak force of 19.3 g. In data set [1] (setting [4]), this compound yielded an average friction force of 11.4 g and a peak friction force of 26.2 g. In data set [1] (setting [5]), this compound had an average frictional force of 5.7 g and an average peak force of 8.4 g. Besides, in data set [1] (setting [6]), the average friction force is given as 3.9 g and the peak friction force was determined as 6.7 g.

Turning to `OCCOCCO` [Example 14], in data set [2] (1 mg/mL crosslinker), the “Congo Red stain, Unilluminated Rubbed” value was “[−]”; the “Congo Red stain, Unilluminated Unrubbed” value is “[−]”; the “Congo Red stain, Illuminated Rubbed” value was “[++]”; the “Congo Red stain, Illuminated Unrubbed” value was “[++]”. In data set [2] (2 mg/mL crosslinker), the “Congo Red stain, Unilluminated Rubbed” value is “[−]”; the “Congo Red stain, Unilluminated Unrubbed” value is “[−]”; the “Congo Red stain, Illuminated Rubbed” value is “[+++]”; the “Congo Red stain, Illuminated Unrubbed” value is “[+++]”. For the same compound, in data set [2] (.5 mg/mL crosslinker), the “Congo Red stain, Unilluminated Rubbed” value is “[−]”; the “Congo Red stain, Unilluminated Unrubbed” value is “[−]”; the “Congo Red stain, Illuminated Rubbed” value was “[+]”; the “Congo Red stain, Illuminated Unrubbed” value is “[+]”.

Source of the values: patent US8487137B2, “Photochemical crosslinkers for polymer coatings and substrate tie-layer” (Innovative Surface Technologies, LLC, priority 2005, dated 2013).
